Test results from article PMC8567304.
Results are given in words; binding and its absence hold for the method and conditions named. For some assays here: In cells and extracts the contact can be indirect. Some binding calls cover weakened binding; strength is not graded here. For some assays here: Sequences can lack the tags named with a protein.

Sequences of proteins named here, by UniProt entry; tags and fusion partners are left off.
UniProt O00506: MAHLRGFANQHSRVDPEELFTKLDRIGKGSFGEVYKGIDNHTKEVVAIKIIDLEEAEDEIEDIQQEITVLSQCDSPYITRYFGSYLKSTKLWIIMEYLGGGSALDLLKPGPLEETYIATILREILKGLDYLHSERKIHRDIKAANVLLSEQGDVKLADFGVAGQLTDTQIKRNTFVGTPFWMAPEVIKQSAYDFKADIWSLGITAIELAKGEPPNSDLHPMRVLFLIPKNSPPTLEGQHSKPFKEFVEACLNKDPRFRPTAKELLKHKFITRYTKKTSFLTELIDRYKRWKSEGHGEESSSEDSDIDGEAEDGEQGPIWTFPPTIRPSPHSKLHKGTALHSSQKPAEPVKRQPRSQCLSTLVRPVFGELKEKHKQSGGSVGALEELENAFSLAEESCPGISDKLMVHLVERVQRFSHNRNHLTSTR

T1: MYC-TAOK3 (human MYC-tagged full-length TAOK3) (human) (UniProt Q9H2K8)
T1 sequence: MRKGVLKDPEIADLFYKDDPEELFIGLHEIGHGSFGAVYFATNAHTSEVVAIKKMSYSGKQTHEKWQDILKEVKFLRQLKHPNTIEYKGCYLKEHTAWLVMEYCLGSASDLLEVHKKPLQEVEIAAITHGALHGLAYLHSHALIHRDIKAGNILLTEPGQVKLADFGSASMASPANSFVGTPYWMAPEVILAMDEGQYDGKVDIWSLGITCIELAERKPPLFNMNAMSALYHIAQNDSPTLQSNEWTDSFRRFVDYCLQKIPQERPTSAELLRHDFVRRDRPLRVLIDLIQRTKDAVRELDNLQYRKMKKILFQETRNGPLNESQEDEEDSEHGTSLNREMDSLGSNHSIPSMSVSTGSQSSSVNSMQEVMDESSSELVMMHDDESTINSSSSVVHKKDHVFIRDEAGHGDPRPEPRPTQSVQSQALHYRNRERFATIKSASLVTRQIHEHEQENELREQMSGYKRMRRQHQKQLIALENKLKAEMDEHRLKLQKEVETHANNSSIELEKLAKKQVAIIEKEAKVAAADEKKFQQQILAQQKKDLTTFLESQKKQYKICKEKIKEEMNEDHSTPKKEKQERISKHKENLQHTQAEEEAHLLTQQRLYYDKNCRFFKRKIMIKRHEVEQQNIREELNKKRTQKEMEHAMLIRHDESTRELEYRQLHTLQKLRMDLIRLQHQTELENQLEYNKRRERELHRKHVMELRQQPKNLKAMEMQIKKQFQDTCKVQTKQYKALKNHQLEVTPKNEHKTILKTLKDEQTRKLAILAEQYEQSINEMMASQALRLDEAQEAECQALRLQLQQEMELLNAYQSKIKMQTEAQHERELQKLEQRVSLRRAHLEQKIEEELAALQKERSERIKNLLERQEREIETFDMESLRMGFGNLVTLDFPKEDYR

B1: TAOK3 prey fragment (amino acids 1 to 447) (domain or fragment, UniProt Q9H2K8 1-447)
chain: MRKGVLKDPEIADLFYKDDPEELFIGLHEIGHGSFGAVYFATNAHTSEVVAIKKMSYSGKQTHEKWQDILKEVKFLRQLKHPNTIEYKGCYLKEHTAWLVMEYCLGSASDLLEVHKKPLQEVEIAAITHGALHGLAYLHSHALIHRDIKAGNILLTEPGQVKLADFGSASMASPANSFVGTPYWMAPEVILAMDEGQYDGKVDIWSLGITCIELAERKPPLFNMNAMSALYHIAQNDSPTLQSNEWTDSFRRFVDYCLQKIPQERPTSAELLRHDFVRRDRPLRVLIDLIQRTKDAVRELDNLQYRKMKKILFQETRNGPLNESQEDEEDSEHGTSLNREMDSLGSNHSIPSMSVSTGSQSSSVNSMQEVMDESSSELVMMHDDESTINSSSSVVHKKDHVFIRDEAGHGDPRPEPRPTQSVQSQALHYRNRERFATIKSASLVTRQ

Columns and labels:
[1] = biological target: T1, MYC-TAOK3 (human MYC-tagged full-length TAOK3) (human); assay: co-IP; protein extracts of transfected IHHs; immunoprecipitation with anti-MYC antibodies (Anti-c-MYC Magnetic Beads); Western blot
[2] = biological target: Gal4-STK25 (full-length human STK25 fused to the Gal4 DNA-binding domain) (human) (UniProt O00506); assay: two-hybrid; Gal4-STK25 bait (pB35) screened against a random-primed primary human hepatocyte cDNA library in pP6; mating of YHGX13 and CG1945; His+ colonies on medium lacking tryptophan, leucine, methionine and histidine

Row | Molecule | binding [1] | binding [2]
1 | FLAG-STK25 (from UniProt O00506 1-426) | binds | 
2 | B1 |  | binds
